Read-outs that look alike come from different tables or passages of the source.
How the values were obtained:
[1] = parameters: method as in earlier work; settings: cited from earlier work
[2] = test system: LNCaP tumors; parameters: method as in earlier work; settings: cited from earlier work
[3] = test system: LNCaP tumors; assay: Radiation dosimetry, unit density sphere model for LNCaP tumors (OLINDA); type: in vivo, mouse
[4] = Radiation dosimetry for major organs of 25-g mice (OLINDA, MOBY phantom); type: in vivo, mouse
Description: Internal dosimetry estimates were calculated using the organ level internal dose assessment (OLINDA) software v.2.2 following our previously published procedures. These estimates were performed for the mouse using the 25g MOBY phantom, and for the tumors using the previously reported unit density sphere model. Both the phantom and the sphere model are available in OLINDA and require the input of the total number of decays normalized by injected activity in units of MBq×h/MBq for each of the source organ/tumor.
The biodistribution data (available in Table S5-S7) were used to determine the kinetics input values required by OLINDA. First, each of the values was decayed to its corresponding time point (the values on the table are shown at injection time). Then the different time-points of the uptake data (%ID/g) for each organ were fitted to both mono-exponential (%ID/g = ae^⎯bt) and bi-exponential (%ID/g = ae^⎯bt + ce^⎯dt) functions using in-house software developed in Python. The best fit was selected based on maximizing the coefficient of determination (R^2) of the fit and minimizing the residuals. The areas under the curves were analytically calculated based on the parameters obtained from the best fit of each organ and this provided the kinetic input values required by OLINDA.
In the mouse case, the adrenals, blood, fat, and muscle are not modeled in the phantom. These organs were grouped together and included in what OLINDA calls the remainder of the body. Lastly, the numbers of decays in the tumors were also calculated based on the biodistribution data of the mice and the values were inputted into the sphere model available in OLINDA.

[5] = target organ Remainder of the body

O=C([O-])CN1CCN(CC(=O)[O-])CCN(CC(=O)NCC2CCC(C(=O)NC(Cc3c4ccccc4cc4ccccc34)C(=O)NCCCCC(NC(=O)NC(CCCC(=O)O)C(=O)O)C(=O)O)CC2)CCN(CC(=O)[O-])CC1.[177Lu+3] (stereo not shown) [[^177Lu]Lu-HTK03149]
Organ dose ([1]; target organ Brain): 2.35E+00 mGy/MBq
Organ dose ([1]; target organ Heart): 9.38E+00 mGy/MBq
Organ dose ([1]; target organ Kidneys): 6.72E+01 mGy/MBq
Organ dose ([1]; target organ Large intestine): 1.59E+01 mGy/MBq
Organ dose ([1]; target organ Liver): 2.09E+01 mGy/MBq
Organ dose ([1]; target organ Lungs): 1.62E+01 mGy/MBq
Organ dose ([1]; target organ Pancreas): 7.72E+00 mGy/MBq
Organ dose [1, 5]: 8.95E+00 mGy/MBq
Organ dose ([1]; target organ Skeleton): 7.45E+00 mGy/MBq
Organ dose ([1]; target organ Small intestine): 1.57E+01 mGy/MBq
Organ dose ([1]; target organ Spleen): 1.89E+01 mGy/MBq
Organ dose ([1]; target organ Stomach): 1.57E+01 mGy/MBq
Organ dose ([1]; target organ Testes): 8.72E+00 mGy/MBq
Organ dose ([1]; target organ Thyroid): 1.29E+01 mGy/MBq
Organ dose ([1]; target organ Urinary bladder): 5.84E+02 mGy/MBq
Radiation dose to LNCaP tumor ([2]; sphere/tumor volume 0.01 mL): 7.53E+04 mGy/MBq
Radiation dose to LNCaP tumor ([2]; sphere/tumor volume 0.1 mL): 7.87E+03 mGy/MBq
Radiation dose to LNCaP tumor ([2]; sphere/tumor volume 0.5 mL): 1.60E+03 mGy/MBq
Radiation dose to LNCaP tumor ([2]; sphere/tumor volume 1 mL): 8.06E+02 mGy/MBq
Radiation dose to LNCaP tumor ([2]; sphere/tumor volume 2 mL): 4.05E+02 mGy/MBq
Radiation dose to LNCaP tumor ([2]; sphere/tumor volume 4 mL): 2.03E+02 mGy/MBq
Radiation dose to LNCaP tumor ([2]; sphere/tumor volume 6 mL): 1.36E+02 mGy/MBq
Radiation dose to LNCaP tumor ([2]; sphere/tumor volume 8 mL): 1.02E+02 mGy/MBq
Radiation dose to LNCaP tumor ([2]; sphere/tumor volume 10 mL): 8.17E+01 mGy/MBq
Radiation dose to LNCaP tumor ([2]; sphere/tumor volume 20 mL): 4.10E+01 mGy/MBq
Radiation dose to LNCaP tumor ([2]; sphere/tumor volume 40 mL): 2.06E+01 mGy/MBq
Radiation dose to LNCaP tumor ([2]; sphere/tumor volume 60 mL): 1.37E+01 mGy/MBq
Radiation dose to LNCaP tumor ([2]; sphere/tumor volume 80 mL): 1.03E+01 mGy/MBq
Radiation dose to LNCaP tumor ([2]; sphere/tumor volume 100 mL): 8.28E+00 mGy/MBq
Radiation dose to LNCaP tumor ([2]; sphere/tumor volume 300 mL): 2.79E+00 mGy/MBq
Radiation dose to LNCaP tumor ([2]; sphere/tumor volume 400 mL): 2.10E+00 mGy/MBq
Radiation dose to LNCaP tumor ([2]; sphere/tumor volume 500 mL): 1.68E+00 mGy/MBq
Radiation dose to LNCaP tumor ([2]; sphere/tumor volume 600 mL): 1.40E+00 mGy/MBq
Radiation dose to LNCaP tumor ([2]; sphere/tumor volume 1000 mL): 8.48E-01 mGy/MBq
Radiation dose to LNCaP tumor ([2]; sphere/tumor volume 2000 mL): 4.29E-01 mGy/MBq
Radiation dose to LNCaP tumor ([2]; sphere/tumor volume 3000 mL): 2.88E-01 mGy/MBq
Radiation dose to LNCaP tumor ([2]; sphere/tumor volume 4000 mL): 2.17E-01 mGy/MBq
Radiation dose to LNCaP tumor ([2]; sphere/tumor volume 5000 mL): 1.75E-01 mGy/MBq
Radiation dose to LNCaP tumor ([2]; sphere/tumor volume 6000 mL): 1.46E-01 mGy/MBq

COc1ccc(CCCC(=O)NCC(=O)N[C@@H](CCCCNC(=O)CN2CCN(CC(=O)[O-])CCN(CC(=O)[O-])CCN(CC(=O)[O-])CC2)C(=O)NC[C@H]2CC[C@H](C(=O)N[C@@H](Cc3c4ccccc4cc4ccccc34)C(=O)NCCCC[C@H](NC(=O)N[C@@H](CCCC(=O)O)C(=O)O)C(=O)O)CC2)cc1.[177Lu+3] [[^177Lu]Lu-HTK03170]
Radiation dose to LNCaP tumor xenografts relative to [^177Lu]Lu-HTK03149 ([3]; mouse, in vivo): 6.7 fold
Radiation dose to LNCaP tumor xenografts relative to [^177Lu]Lu-PSMA-617 ([3]; mouse, in vivo): 16.4 fold
Radiation dose to LNCaP tumor ([3]; sphere/tumor volume 0.01 mL): 5.02E+05 mGy/MBq
Radiation dose to LNCaP tumor ([3]; sphere/tumor volume 0.1 mL): 5.25E+04 mGy/MBq
Radiation dose to LNCaP tumor ([3]; sphere/tumor volume 0.5 mL): 1.07E+04 mGy/MBq
Radiation dose to LNCaP tumor ([3]; sphere/tumor volume 1 mL): 5.38E+03 mGy/MBq
Radiation dose to LNCaP tumor ([3]; sphere/tumor volume 2 mL): 2.70E+03 mGy/MBq
Radiation dose to LNCaP tumor ([3]; sphere/tumor volume 4 mL): 1.36E+03 mGy/MBq
Radiation dose to LNCaP tumor ([3]; sphere/tumor volume 6 mL): 9.06E+02 mGy/MBq
Radiation dose to LNCaP tumor ([3]; sphere/tumor volume 8 mL): 6.80E+02 mGy/MBq
Radiation dose to LNCaP tumor ([3]; sphere/tumor volume 10 mL): 5.45E+02 mGy/MBq
Radiation dose to LNCaP tumor ([3]; sphere/tumor volume 20 mL): 2.74E+02 mGy/MBq
Radiation dose to LNCaP tumor ([3]; sphere/tumor volume 40 mL): 1.37E+02 mGy/MBq
Radiation dose to LNCaP tumor ([3]; sphere/tumor volume 60 mL): 9.17E+01 mGy/MBq
Radiation dose to LNCaP tumor ([3]; sphere/tumor volume 80 mL): 6.90E+01 mGy/MBq
Radiation dose to LNCaP tumor ([3]; sphere/tumor volume 100 mL): 5.52E+01 mGy/MBq
Radiation dose to LNCaP tumor ([3]; sphere/tumor volume 300 mL): 1.86E+01 mGy/MBq
Radiation dose to LNCaP tumor ([3]; sphere/tumor volume 400 mL): 1.40E+01 mGy/MBq
Radiation dose to LNCaP tumor ([3]; sphere/tumor volume 500 mL): 1.12E+01 mGy/MBq
Radiation dose to LNCaP tumor ([3]; sphere/tumor volume 600 mL): 9.37E+00 mGy/MBq
Radiation dose to LNCaP tumor ([3]; sphere/tumor volume 1000 mL): 5.66E+00 mGy/MBq
Radiation dose to LNCaP tumor ([3]; sphere/tumor volume 2000 mL): 2.87E+00 mGy/MBq
Radiation dose to LNCaP tumor ([3]; sphere/tumor volume 3000 mL): 1.92E+00 mGy/MBq
Radiation dose to LNCaP tumor ([3]; sphere/tumor volume 4000 mL): 1.45E+00 mGy/MBq
Radiation dose to LNCaP tumor ([3]; sphere/tumor volume 5000 mL): 1.17E+00 mGy/MBq
Radiation dose to LNCaP tumor ([3]; sphere/tumor volume 6000 mL): 9.76E-01 mGy/MBq
Kidney radiation dose relative to [^177Lu]Lu-HTK03149 ([4]; mouse, in vivo): 5.6 fold
Kidney radiation dose relative to [^177Lu]Lu-PSMA-617 ([4]; mouse, in vivo): 1.7 fold
Radiation dose to various organs relative to [^177Lu]Lu-HTK03149 ([4]; mouse, in vivo): 1.4- to 8.4 fold
Radiation dose to various organs relative to [^177Lu]Lu-PSMA-617 ([4]; mouse, in vivo): 1.4- to 26.5 fold
Skeleton absorbed dose relative to [^177Lu]Lu-PSMA-617 ([4]; skeleton as surrogate for bone marrow): 23.4 fold
Organ dose ([4]; target organ Brain): 1.98E+01 mGy/MBq
Organ dose ([4]; target organ Heart): 4.55E+01 mGy/MBq
Organ dose ([4]; target organ Kidneys): 3.74E+02 mGy/MBq
Organ dose ([4]; target organ Large intestine): 3.27E+01 mGy/MBq
Organ dose ([4]; target organ Liver): 7.50E+01 mGy/MBq
Organ dose ([4]; target organ Lungs): 6.90E+01 mGy/MBq
Organ dose ([4]; target organ Pancreas): 3.01E+01 mGy/MBq
Organ dose [4, 5]: 3.18E+01 mGy/MBq
Organ dose ([4]; target organ Skeleton): 2.93E+01 mGy/MBq
Organ dose ([4]; target organ Small intestine): 3.21E+01 mGy/MBq
Organ dose ([4]; target organ Spleen): 9.14E+01 mGy/MBq
Organ dose ([4]; target organ Stomach): 4.00E+01 mGy/MBq
Organ dose ([4]; target organ Testes): 6.22E+01 mGy/MBq
Organ dose ([4]; target organ Thyroid): 4.31E+01 mGy/MBq
Organ dose ([4]; target organ Urinary bladder): 8.08E+02 mGy/MBq

O=C([O-])CN1CCN(CC(=O)[O-])CCN(CC(=O)NCC2CCC(C(=O)NC(Cc3ccc4ccccc4c3)C(=O)NCCCCC(NC(=O)NC(CCC(=O)O)C(=O)O)C(=O)O)CC2)CCN(CC(=O)[O-])CC1.[177Lu+3] (stereo not shown) [[^177Lu]Lu-PSMA-617]
Organ dose ([1]; target organ Brain): 1.79E+00 mGy/MBq
Organ dose ([1]; target organ Heart): 1.90E+00 mGy/MBq
Organ dose ([1]; target organ Kidneys): 2.23E+02 mGy/MBq
Organ dose ([1]; target organ Large intestine): 2.42E+00 mGy/MBq
Organ dose ([1]; target organ Liver): 3.84E+00 mGy/MBq
Organ dose ([1]; target organ Lungs): 4.46E+00 mGy/MBq
Organ dose ([1]; target organ Pancreas): 3.60E+00 mGy/MBq
Organ dose [1, 5]: 6.89E+00 mGy/MBq
Organ dose ([1]; target organ Skeleton): 1.25E+00 mGy/MBq
Organ dose ([1]; target organ Small intestine): 2.08E+00 mGy/MBq
Organ dose ([1]; target organ Spleen): 1.15E+01 mGy/MBq
Organ dose ([1]; target organ Stomach): 1.51E+00 mGy/MBq
Organ dose ([1]; target organ Testes): 3.04E+00 mGy/MBq
Organ dose ([1]; target organ Thyroid): 2.78E+00 mGy/MBq
Organ dose ([1]; target organ Urinary bladder): 5.76E+02 mGy/MBq
Radiation dose to LNCaP tumor ([2]; sphere/tumor volume 0.01 mL): 3.07E+04 mGy/MBq
Radiation dose to LNCaP tumor ([2]; sphere/tumor volume 0.1 mL): 3.21E+03 mGy/MBq
Radiation dose to LNCaP tumor ([2]; sphere/tumor volume 0.5 mL): 6.51E+02 mGy/MBq
Radiation dose to LNCaP tumor ([2]; sphere/tumor volume 1 mL): 3.28E+02 mGy/MBq
Radiation dose to LNCaP tumor ([2]; sphere/tumor volume 2 mL): 1.65E+02 mGy/MBq
Radiation dose to LNCaP tumor ([2]; sphere/tumor volume 4 mL): 8.28E+01 mGy/MBq
Radiation dose to LNCaP tumor ([2]; sphere/tumor volume 6 mL): 5.53E+01 mGy/MBq
Radiation dose to LNCaP tumor ([2]; sphere/tumor volume 8 mL): 4.15E+01 mGy/MBq
Radiation dose to LNCaP tumor ([2]; sphere/tumor volume 10 mL): 3.33E+01 mGy/MBq
Radiation dose to LNCaP tumor ([2]; sphere/tumor volume 20 mL): 1.67E+01 mGy/MBq
Radiation dose to LNCaP tumor ([2]; sphere/tumor volume 40 mL): 8.38E+00 mGy/MBq
Radiation dose to LNCaP tumor ([2]; sphere/tumor volume 60 mL): 5.60E+00 mGy/MBq
Radiation dose to LNCaP tumor ([2]; sphere/tumor volume 80 mL): 4.21E+00 mGy/MBq
Radiation dose to LNCaP tumor ([2]; sphere/tumor volume 100 mL): 3.37E+00 mGy/MBq
Radiation dose to LNCaP tumor ([2]; sphere/tumor volume 300 mL): 1.13E+00 mGy/MBq
Radiation dose to LNCaP tumor ([2]; sphere/tumor volume 400 mL): 8.54E-01 mGy/MBq
Radiation dose to LNCaP tumor ([2]; sphere/tumor volume 500 mL): 6.85E-01 mGy/MBq
Radiation dose to LNCaP tumor ([2]; sphere/tumor volume 600 mL): 5.72E-01 mGy/MBq
Radiation dose to LNCaP tumor ([2]; sphere/tumor volume 1000 mL): 3.45E-01 mGy/MBq
Radiation dose to LNCaP tumor ([2]; sphere/tumor volume 2000 mL): 1.75E-01 mGy/MBq
Radiation dose to LNCaP tumor ([2]; sphere/tumor volume 3000 mL): 1.17E-01 mGy/MBq
Radiation dose to LNCaP tumor ([2]; sphere/tumor volume 4000 mL): 8.86E-02 mGy/MBq
Radiation dose to LNCaP tumor ([2]; sphere/tumor volume 5000 mL): 7.12E-02 mGy/MBq
Radiation dose to LNCaP tumor ([2]; sphere/tumor volume 6000 mL): 5.96E-02 mGy/MBq

— article PMC10465233, “Lys-urea-Aad, Lys-urea-Cmc and Lys-urea-Cms as potential pharmacophores for the design of PSMA-targeted radioligands to reduce off-target uptake in kidneys and salivary glands” (Theranostics, 2023)
